# Source: the M2OR odorant receptor database
# Chains of the proteins cited; added tags and fusions are not shown. Lines headed by an entry give the natural chain unless they say otherwise; changes in a name come on top. Chains listed by the source or under a name are the forms on record and can include a tag or linker.
# UniProt Q6IEZ7: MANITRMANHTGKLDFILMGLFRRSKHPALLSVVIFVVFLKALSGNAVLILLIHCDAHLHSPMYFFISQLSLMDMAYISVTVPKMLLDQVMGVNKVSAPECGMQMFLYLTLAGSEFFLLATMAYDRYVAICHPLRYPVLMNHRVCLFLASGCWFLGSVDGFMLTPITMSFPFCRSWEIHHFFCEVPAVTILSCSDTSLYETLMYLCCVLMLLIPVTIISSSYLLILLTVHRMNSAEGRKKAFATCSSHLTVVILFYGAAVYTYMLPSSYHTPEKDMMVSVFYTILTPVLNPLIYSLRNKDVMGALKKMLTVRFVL
# UniProt Q8NHC8: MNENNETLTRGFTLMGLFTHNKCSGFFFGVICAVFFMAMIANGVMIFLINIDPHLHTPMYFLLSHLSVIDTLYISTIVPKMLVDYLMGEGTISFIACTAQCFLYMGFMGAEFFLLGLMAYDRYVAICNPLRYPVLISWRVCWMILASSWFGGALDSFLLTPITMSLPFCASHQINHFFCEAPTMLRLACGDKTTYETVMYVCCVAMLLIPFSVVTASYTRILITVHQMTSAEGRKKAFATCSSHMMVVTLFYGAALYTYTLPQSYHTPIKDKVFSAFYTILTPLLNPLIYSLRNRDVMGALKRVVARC
# UniProt P0C7T2: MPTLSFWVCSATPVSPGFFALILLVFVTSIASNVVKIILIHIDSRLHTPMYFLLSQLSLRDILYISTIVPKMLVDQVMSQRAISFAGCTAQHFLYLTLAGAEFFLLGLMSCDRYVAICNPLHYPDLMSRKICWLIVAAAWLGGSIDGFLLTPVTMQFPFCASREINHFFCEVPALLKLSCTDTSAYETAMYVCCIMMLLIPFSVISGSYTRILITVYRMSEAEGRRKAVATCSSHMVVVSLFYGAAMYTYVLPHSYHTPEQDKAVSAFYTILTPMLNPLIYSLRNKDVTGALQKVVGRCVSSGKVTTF
# OR2W1, as listed by the source: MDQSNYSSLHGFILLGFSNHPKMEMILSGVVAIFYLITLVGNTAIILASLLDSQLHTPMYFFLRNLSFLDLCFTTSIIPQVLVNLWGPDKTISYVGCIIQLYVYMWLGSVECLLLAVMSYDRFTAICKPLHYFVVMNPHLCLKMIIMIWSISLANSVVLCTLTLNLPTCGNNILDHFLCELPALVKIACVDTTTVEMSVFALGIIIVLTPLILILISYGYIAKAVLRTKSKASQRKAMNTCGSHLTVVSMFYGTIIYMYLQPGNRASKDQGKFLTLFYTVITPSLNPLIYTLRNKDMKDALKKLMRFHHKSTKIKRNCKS
# Changes are numbered by the printed parent chain. This is a selection; strong and weak results do not stand in their true shares. Calls are pooled over several reports, among them a noisy single-well screen. The list shows a part of the results. Some of the results follow.
# Tests used:
# Settings in all cases: stereoisomer not certain
# [1] = test system: T1, OR2T5
# T1 sequence (whole entry): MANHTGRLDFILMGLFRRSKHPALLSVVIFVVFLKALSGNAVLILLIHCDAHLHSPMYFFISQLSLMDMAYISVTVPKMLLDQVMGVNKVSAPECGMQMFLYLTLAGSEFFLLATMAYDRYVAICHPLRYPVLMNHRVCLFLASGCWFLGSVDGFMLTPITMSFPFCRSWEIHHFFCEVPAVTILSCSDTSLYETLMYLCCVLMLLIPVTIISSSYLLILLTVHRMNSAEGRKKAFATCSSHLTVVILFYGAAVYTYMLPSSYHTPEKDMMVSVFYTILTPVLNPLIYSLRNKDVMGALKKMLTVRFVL
# Outline: (§1)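 Whether a receptor–molecule pair is responsive (active) rests on the original authors' judgment that its measured signal was statistically different from baseline. Pairs without that judgment are non-responsive (inactive). Sources used varied assay methods, commonly transient luciferase assays in mammalian cell lines.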
# [2] = test system: T2, OR2T6
# T2 sequence (whole entry): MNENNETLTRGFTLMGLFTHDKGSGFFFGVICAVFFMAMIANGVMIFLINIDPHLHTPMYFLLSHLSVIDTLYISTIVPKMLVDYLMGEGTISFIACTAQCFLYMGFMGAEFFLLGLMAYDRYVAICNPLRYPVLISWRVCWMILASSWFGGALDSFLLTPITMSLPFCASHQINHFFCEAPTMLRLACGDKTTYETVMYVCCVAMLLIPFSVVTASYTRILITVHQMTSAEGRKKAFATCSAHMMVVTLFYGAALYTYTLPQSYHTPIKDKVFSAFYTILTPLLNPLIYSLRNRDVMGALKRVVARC
# Outline: as §1
# [3] = test system: T3, OR2T8
# T3 sequence (whole entry): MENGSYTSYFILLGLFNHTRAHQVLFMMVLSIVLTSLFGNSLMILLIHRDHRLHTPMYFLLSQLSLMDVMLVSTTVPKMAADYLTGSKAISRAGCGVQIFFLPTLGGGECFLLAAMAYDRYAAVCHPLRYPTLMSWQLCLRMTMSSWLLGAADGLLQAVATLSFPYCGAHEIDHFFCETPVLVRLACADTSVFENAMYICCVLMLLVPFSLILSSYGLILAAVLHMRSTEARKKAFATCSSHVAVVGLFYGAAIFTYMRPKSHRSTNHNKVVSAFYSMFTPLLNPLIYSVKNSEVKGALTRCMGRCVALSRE
# Outline: as §1
# [4] = test system: T4, OR2V1
# T4 sequence (whole entry): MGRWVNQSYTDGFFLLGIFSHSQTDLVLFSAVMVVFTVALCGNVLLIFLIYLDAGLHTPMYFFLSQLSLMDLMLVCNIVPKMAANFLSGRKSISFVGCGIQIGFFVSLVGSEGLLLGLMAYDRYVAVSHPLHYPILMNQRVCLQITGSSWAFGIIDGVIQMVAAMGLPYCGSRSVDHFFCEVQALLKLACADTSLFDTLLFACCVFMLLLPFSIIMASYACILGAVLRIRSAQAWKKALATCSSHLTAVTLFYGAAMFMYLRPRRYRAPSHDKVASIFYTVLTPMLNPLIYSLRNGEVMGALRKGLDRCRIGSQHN
# Outline: as §1
# [5] = test system: T5, OR2V2
# T5 sequence (whole entry): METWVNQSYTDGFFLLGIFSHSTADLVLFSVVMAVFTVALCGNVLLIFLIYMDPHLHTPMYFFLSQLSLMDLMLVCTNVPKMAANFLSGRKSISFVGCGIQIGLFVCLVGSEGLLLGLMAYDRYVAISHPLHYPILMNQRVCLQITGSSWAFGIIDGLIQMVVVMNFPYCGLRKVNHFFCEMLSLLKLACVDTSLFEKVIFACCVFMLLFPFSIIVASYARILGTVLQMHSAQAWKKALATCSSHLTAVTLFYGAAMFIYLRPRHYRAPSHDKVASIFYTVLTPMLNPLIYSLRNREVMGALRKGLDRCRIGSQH
# Outline: as §1
# [6] = biological target: T6, OR2W1 (Homo sapiens) (UniProt Q9Y3N9)
# T6 sequence (whole entry): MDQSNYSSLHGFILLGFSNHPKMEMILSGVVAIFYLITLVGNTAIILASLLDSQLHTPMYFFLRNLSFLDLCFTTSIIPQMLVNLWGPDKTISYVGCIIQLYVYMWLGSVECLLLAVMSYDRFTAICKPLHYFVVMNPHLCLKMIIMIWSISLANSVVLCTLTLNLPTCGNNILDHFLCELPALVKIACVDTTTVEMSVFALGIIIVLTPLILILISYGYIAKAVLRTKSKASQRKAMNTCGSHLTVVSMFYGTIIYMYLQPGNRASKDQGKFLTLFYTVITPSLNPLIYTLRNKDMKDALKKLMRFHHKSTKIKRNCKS
# Outline: as §1
# [7] = test system: T7, OR2W1
# T7 sequence (whole entry): T6 sequence (whole entry) with D296N
# Outline: as §1
# [8] = test system: T8, OR2W3
# T8 sequence (whole entry): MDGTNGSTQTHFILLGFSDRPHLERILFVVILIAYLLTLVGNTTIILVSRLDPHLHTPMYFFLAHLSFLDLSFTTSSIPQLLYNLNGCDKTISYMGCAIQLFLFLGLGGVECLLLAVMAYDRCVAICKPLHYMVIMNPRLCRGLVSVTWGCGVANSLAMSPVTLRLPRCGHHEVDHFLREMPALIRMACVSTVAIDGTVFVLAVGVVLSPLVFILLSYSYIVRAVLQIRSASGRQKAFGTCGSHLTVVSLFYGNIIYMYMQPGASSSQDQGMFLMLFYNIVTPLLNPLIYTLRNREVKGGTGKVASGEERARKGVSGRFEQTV
# Outline: as §1
# [9] = biological target: T9, OR2W5P (Homo sapiens) (UniProt A6NFC9)
# T9 sequence (whole entry): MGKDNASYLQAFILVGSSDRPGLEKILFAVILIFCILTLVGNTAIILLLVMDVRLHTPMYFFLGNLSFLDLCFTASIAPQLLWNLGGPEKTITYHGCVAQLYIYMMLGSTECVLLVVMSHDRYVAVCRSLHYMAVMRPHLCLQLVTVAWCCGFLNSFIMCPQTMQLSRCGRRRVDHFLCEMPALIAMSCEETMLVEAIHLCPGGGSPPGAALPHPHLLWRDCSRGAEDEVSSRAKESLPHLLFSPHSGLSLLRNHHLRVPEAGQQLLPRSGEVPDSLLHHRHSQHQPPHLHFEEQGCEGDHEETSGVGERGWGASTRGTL
# Outline: as §1
# [10] = test system: T10, OR2Y1
# T10 sequence (whole entry): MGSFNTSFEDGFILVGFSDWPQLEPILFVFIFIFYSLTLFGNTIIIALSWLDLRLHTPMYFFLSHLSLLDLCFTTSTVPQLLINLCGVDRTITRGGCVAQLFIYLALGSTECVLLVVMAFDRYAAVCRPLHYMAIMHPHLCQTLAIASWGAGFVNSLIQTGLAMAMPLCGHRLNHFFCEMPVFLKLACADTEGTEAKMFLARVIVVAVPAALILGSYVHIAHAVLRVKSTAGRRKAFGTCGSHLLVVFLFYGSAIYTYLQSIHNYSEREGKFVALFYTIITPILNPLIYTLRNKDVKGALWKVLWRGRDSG
# Outline: as §1
# [11] = biological target: T11, OR2Z1 (Homo sapiens) (UniProt Q8NG97)
# T11 sequence (whole entry): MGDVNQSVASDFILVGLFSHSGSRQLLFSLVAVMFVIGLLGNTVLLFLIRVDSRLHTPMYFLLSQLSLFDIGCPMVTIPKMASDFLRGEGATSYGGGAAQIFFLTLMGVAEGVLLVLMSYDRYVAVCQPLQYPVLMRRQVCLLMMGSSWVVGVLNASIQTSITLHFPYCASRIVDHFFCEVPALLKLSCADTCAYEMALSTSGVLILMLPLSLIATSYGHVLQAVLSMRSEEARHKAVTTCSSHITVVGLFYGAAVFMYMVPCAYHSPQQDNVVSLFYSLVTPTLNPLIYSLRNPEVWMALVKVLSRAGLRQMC
# Outline: as §1
# [12] = biological target: T12, OR3A1 (Homo sapiens) (UniProt P47881)
# T12 sequence (whole entry): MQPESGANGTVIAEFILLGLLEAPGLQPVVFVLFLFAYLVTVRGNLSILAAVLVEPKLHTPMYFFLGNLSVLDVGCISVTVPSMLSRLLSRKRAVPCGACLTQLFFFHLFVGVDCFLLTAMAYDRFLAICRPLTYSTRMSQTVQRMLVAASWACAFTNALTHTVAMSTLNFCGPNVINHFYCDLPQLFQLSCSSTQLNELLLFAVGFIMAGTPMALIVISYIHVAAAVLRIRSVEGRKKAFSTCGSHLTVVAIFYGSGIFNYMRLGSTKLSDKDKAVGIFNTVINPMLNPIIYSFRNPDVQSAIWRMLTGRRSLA
# Outline: as §1
# [13] = biological target: T13, OR3A2 (Homo sapiens) (UniProt P47893)
# T13 sequence (whole entry): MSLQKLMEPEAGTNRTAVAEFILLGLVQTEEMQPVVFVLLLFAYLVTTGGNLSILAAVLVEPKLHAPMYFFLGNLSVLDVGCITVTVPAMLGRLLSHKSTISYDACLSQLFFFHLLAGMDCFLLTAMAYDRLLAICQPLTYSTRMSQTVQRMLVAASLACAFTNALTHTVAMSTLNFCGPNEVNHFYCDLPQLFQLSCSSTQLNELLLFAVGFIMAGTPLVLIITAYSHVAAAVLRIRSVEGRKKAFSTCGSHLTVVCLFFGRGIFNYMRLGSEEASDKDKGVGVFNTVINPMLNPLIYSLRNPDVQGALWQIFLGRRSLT
# Outline: as §1
# [14] = test system: T14, OR2W1; remark: listed apart in the source
# T14 sequence (whole entry): T6 sequence (whole entry) with M81V
# Outline: as §1
# [15] = biological target: T15, OR2W3 (Homo sapiens) (UniProt Q7Z3T1)
# T15 sequence (whole entry): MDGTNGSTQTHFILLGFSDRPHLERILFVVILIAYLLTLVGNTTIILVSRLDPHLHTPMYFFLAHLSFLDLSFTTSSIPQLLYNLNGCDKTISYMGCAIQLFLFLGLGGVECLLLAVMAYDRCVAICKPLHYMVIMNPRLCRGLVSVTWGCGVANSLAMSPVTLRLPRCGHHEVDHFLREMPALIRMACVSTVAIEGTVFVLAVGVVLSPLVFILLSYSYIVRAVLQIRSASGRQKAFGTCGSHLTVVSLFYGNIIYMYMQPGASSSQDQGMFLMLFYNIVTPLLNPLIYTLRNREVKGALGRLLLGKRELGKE
# Outline: as §1
# [16] = biological target: OR2T5 (Homo sapiens) (UniProt Q6IEZ7)
# Outline: as §1
# [17] = biological target: OR2T6 (Homo sapiens) (UniProt Q8NHC8)
# Outline: as §1
# [18] = biological target: OR2T7 (Homo sapiens) (UniProt P0C7T2)
# Outline: as §1
# [19] = biological target: OR2V2 (Homo sapiens) (UniProt Q96R30)
# Outline: as §1
# [20] = biological target: OR2Y1 (Homo sapiens) (UniProt Q8NGV0)
# Outline: as §1
# 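Note: active if original authors judged signal statistically different from baseline.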
SMILES,odorant receptor agonist call [1],odorant receptor agonist call [2],odorant receptor agonist call [3],odorant receptor agonist call [4],odorant receptor agonist call [5],odorant receptor agonist call [6],odorant receptor agonist call [7],odorant receptor agonist call [8],odorant receptor agonist call [9],odorant receptor agonist call [10],odorant receptor agonist call [11],odorant receptor agonist call [12],odorant receptor agonist call [13],odorant receptor agonist call [14],odorant receptor agonist call [15],odorant receptor agonist call [16],odorant receptor agonist call [17],odorant receptor agonist call [18],odorant receptor agonist call [19],odorant receptor agonist call [20]
CCCCCCOC(=O)CCC,inactive,inactive,inactive,inactive,inactive,inactive,inactive,inactive,inactive,inactive,inactive,inactive,inactive,,,,,,,
c1cnccn1,inactive,inactive,inactive,inactive,inactive,active,inactive,inactive,inactive,inactive,inactive,inactive,inactive,,,,,,,
CCCCCCCC=O,inactive,inactive,inactive,inactive,inactive,active,active,inactive,inactive,inactive,inactive,inactive,inactive,active,inactive,,,,,
CC12C=CCC1C1CCC3CC(=O)CCC3(C)C1CC2 (stereo not given),inactive,inactive,inactive,inactive,inactive,inactive,inactive,inactive,inactive,inactive,inactive,inactive,inactive,,inactive,inactive,inactive,inactive,inactive,inactive
c1ccc(Oc2ccccc2)cc1,inactive,inactive,inactive,inactive,inactive,inactive,inactive,inactive,inactive,inactive,inactive,inactive,inactive,,,,,,,
CC(C)CCC(=O)O,inactive,inactive,inactive,inactive,inactive,active,inactive,inactive,inactive,inactive,inactive,inactive,inactive,,,,,,,
CC(=O)OCC=C(C)CCC=C(C)C,inactive,inactive,active,inactive,inactive,active,active,inactive,inactive,inactive,inactive,active,inactive,,,,,,,
C=CCSCC=C,inactive,inactive,inactive,inactive,inactive,active,inactive,inactive,inactive,inactive,inactive,inactive,inactive,,,,,,,
CC=Cc1ccc(O)c(OC)c1,inactive,inactive,active,active,active,active,active,active,inactive,inactive,inactive,inactive,active,,,,,,,
CCCCCCCCCCC=O,inactive,inactive,inactive,inactive,inactive,active,inactive,inactive,inactive,inactive,inactive,inactive,inactive,,inactive,,,,,
CC(C)(C)c1ccc(CCC=O)cc1,inactive,inactive,inactive,inactive,inactive,inactive,inactive,inactive,inactive,inactive,inactive,inactive,inactive,,,,,,,
COC(=O)c1ccccc1O,inactive,inactive,inactive,inactive,inactive,inactive,inactive,inactive,inactive,inactive,inactive,inactive,inactive,,,,,,,

# Quoted from the listing:
# odorant receptor agonist call [2] with CC(=O)OCC=C(C)CCC=C(C)C is entered as inactive
# odorant receptor agonist call [1] with COC(=O)c1ccccc1O is entered as inactive
